Measured values taken from patent US20110305629A1.
No constants are given. Whether binding was seen depends on the method and setting. Some binding calls cover weakened binding; strength is not graded here.

The chains behind the UniProt entries cited, without tags or fusion partners. Where a name states a change or a piece, a line headed by the entry shows the natural chain unless it says otherwise.
UniProt P43406: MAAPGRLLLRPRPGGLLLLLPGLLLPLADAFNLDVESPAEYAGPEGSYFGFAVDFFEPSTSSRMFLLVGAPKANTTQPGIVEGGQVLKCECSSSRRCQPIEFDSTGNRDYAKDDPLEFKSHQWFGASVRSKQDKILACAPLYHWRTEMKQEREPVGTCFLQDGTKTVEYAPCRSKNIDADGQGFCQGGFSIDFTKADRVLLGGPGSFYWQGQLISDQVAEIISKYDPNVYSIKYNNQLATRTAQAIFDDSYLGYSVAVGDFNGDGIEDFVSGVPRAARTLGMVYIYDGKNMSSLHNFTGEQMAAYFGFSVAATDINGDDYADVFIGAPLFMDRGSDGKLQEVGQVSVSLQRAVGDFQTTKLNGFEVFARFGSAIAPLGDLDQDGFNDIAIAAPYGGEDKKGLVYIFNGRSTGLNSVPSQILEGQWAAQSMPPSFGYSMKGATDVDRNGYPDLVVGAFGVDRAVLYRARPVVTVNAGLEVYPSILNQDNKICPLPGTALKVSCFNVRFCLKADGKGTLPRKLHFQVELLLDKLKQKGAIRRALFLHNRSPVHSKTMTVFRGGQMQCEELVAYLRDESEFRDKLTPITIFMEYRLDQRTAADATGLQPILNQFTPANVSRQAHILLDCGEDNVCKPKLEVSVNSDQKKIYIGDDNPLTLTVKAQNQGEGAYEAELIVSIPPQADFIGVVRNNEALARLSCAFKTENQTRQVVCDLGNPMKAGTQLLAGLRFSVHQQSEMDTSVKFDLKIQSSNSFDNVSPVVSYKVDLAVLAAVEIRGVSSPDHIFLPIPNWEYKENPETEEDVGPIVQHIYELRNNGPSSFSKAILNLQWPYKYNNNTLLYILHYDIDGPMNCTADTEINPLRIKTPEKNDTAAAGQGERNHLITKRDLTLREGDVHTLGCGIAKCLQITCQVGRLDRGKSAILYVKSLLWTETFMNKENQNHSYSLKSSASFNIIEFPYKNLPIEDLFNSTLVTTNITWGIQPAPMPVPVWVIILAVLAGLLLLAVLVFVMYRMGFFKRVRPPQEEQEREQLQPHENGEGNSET
UniProt Q9Z0T9: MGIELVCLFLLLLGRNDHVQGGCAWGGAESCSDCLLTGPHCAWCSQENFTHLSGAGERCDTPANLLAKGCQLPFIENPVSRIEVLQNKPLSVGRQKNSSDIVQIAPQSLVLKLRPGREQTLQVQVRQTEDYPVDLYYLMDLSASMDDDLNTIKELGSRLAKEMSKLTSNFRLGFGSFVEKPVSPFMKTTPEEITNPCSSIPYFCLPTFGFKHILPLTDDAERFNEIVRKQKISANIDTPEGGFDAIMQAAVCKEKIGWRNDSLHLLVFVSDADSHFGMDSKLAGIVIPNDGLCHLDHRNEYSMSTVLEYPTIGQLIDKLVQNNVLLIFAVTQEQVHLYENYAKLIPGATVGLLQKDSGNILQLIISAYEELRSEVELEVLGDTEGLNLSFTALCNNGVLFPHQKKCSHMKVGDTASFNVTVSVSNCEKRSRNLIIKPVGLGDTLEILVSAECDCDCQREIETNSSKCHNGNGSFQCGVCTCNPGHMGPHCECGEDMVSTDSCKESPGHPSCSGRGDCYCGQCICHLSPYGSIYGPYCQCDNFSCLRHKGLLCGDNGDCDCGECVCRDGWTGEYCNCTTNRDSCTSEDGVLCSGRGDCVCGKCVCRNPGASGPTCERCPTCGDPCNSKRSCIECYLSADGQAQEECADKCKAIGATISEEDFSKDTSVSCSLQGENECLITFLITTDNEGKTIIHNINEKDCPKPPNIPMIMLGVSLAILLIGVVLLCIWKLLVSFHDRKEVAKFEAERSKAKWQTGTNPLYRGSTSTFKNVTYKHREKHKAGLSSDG

Key:
[1] = target: T1, mouse αvβ6 integrin on cells (mouse) (UniProt P43406+Q9Z0T9); test: flow cytometry on FDCP1-β6 cells (FIG. 4)
[2] = target: T1, mouse αvβ6 integrin on cells (mouse); test: flow cytometry on FDCP1-β6 cells, supernatants (FIG. 4)
[3] = target: T1, mouse αvβ6 integrin on cells (mouse); test: flow cytometry on FDCP1-β6 cells, purified mAbs (FIG. 5)
[4] = target: T1, mouse αvβ6 integrin on cells (mouse); test: flow cytometry on FDCP1-β6 cells, purified antibodies (FIG. 5)

Measured: binding

B1: hu3G9 version 5 (H3/L5), pKJS168 and pKJS188 pairing (antibody, human IgG1, V domains shown)
VH: EVQLVESGGGLVQPGGSLRLSCAASGFTFSRYVMSWVRQAPGKGLEWVASISSGGRMYYPDTVKGRFTISRDNAKNSLYLQMNSLRAEDTAVYYCARGSIYDGYYVFPYWGQGTLVTVSS
VL: EIVLTQSPATLSLSPGERATLSCSASSSVSSSYLYWYQQKPGQAPRLLIYSTSNLASGIPARFSGSGSGTDFTLTISSLEPEDFAVYYCHQWSTYPPTFGGGTKVEIK
binds: all assays above
